# Results as given in article PMC9931222.
# Amino acid sequences for entries named in this document (tags omitted).
# UniProt P46940: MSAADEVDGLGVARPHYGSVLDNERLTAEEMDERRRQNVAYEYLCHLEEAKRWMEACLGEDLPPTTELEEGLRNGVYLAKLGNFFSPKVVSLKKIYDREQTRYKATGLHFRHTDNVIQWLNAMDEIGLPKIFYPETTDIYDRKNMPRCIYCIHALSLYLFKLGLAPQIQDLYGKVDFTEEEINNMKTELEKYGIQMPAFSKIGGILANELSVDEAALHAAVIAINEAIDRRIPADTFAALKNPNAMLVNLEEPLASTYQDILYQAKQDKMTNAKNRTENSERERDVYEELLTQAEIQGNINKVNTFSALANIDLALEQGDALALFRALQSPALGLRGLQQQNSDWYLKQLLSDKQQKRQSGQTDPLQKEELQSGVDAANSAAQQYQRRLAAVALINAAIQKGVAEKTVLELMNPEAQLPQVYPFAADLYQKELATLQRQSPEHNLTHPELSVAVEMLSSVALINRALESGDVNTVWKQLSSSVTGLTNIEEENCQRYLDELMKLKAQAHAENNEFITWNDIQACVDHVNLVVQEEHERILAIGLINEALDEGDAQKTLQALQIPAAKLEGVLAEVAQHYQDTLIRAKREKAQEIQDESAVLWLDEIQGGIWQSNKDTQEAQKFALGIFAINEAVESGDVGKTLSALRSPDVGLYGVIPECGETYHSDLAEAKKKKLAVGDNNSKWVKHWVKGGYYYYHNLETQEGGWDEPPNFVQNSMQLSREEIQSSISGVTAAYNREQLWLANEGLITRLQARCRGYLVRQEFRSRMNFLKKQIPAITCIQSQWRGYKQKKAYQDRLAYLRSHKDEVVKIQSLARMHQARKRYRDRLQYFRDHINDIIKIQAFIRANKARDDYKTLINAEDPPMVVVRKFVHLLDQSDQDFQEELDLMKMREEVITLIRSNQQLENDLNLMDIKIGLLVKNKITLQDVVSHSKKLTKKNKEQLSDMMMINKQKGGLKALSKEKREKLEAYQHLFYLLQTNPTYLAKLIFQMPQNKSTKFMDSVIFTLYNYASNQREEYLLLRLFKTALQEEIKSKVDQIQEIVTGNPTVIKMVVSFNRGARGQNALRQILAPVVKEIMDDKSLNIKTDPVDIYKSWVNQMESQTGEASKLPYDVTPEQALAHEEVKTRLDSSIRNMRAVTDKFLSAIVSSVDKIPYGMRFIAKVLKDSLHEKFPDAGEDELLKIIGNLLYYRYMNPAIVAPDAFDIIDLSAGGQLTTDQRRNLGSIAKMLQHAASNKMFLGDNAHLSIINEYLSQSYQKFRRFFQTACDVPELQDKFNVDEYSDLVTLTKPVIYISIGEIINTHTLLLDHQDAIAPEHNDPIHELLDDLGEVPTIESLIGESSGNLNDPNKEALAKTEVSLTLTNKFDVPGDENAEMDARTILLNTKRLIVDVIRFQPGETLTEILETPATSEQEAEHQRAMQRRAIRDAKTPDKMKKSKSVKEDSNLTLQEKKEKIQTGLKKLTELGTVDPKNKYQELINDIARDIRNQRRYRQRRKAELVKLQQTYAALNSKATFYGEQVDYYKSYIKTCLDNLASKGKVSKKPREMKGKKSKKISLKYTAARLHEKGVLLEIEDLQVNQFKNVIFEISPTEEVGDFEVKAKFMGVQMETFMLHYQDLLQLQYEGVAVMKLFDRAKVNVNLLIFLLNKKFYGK
# UniProt P15056: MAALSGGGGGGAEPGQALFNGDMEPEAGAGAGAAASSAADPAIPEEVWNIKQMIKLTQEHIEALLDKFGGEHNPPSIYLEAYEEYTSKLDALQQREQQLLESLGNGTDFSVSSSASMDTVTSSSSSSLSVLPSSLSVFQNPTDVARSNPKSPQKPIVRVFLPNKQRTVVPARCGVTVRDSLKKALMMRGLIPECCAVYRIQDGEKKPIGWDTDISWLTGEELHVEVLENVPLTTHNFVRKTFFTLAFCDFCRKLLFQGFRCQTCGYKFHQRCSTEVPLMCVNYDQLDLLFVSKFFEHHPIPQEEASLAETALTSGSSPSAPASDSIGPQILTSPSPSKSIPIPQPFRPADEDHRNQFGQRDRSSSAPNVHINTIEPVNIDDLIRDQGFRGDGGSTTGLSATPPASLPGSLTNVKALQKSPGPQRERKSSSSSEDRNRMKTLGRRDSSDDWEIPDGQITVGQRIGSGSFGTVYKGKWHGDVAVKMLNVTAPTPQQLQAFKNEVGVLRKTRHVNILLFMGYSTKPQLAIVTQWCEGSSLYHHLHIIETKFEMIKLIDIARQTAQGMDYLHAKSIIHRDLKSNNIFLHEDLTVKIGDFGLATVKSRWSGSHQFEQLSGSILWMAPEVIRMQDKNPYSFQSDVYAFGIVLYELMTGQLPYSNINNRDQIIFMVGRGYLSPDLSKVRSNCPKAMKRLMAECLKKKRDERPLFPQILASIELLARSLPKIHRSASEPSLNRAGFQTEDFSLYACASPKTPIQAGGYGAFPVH
# Positions count from the first letter of the chain named. These are yes or no findings as the source states them, for the method shown. For some of these results: In cells and extracts the contact can be indirect. Some entries that bind do so weakly or less than the wild type. For some of these results: Sequences can lack the tags named with a protein.
# T1: Flag-tagged wild-type KSR1 (kinase suppressor of Ras 1) (UniProt Q61097)
# T1 sequence: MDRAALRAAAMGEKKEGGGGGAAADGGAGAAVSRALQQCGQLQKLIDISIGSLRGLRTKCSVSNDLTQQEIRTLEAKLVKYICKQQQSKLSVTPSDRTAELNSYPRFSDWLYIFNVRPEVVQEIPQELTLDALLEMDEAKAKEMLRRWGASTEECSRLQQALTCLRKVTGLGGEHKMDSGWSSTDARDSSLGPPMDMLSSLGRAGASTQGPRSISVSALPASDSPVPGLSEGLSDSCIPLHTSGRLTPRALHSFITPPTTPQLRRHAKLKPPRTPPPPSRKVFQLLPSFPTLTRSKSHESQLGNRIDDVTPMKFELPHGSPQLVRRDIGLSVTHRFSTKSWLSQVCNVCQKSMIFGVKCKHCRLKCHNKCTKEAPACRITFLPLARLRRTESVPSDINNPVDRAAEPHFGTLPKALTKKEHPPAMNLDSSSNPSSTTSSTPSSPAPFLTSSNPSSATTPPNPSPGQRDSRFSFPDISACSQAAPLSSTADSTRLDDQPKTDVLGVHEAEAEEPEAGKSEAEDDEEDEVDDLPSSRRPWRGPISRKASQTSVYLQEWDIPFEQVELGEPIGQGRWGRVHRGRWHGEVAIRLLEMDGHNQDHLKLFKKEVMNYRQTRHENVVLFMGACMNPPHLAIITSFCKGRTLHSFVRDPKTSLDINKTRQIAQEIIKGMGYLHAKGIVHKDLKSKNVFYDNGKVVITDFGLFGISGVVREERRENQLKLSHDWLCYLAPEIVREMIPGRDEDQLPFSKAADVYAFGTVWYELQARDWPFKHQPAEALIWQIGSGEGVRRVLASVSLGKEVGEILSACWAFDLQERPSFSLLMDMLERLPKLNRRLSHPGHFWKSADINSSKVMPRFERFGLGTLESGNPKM
# T2: Flag-tagged KSR1 construct 1 to 521 (UniProt Q61097)
# T2 sequence: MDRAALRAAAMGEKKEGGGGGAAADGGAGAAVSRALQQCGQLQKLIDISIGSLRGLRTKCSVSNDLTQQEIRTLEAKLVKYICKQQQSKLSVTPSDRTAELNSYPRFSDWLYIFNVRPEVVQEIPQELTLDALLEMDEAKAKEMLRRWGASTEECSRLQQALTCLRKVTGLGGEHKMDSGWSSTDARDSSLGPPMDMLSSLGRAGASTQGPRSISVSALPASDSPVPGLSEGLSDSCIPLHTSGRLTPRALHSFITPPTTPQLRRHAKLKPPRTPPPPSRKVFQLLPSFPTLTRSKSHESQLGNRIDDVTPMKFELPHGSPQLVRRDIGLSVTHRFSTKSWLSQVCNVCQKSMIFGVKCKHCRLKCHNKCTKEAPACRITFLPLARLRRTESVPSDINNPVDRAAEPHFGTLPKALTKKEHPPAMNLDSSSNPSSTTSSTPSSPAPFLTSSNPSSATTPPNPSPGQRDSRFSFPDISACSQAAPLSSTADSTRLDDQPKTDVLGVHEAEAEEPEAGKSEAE
# T3: Flag-tagged KSR1 C809Y (UniProt Q61097)
# T3 sequence: T1 sequence with C809Y
# T4: GST-KSR1 301-600 (UniProt Q61097)
# T4 sequence: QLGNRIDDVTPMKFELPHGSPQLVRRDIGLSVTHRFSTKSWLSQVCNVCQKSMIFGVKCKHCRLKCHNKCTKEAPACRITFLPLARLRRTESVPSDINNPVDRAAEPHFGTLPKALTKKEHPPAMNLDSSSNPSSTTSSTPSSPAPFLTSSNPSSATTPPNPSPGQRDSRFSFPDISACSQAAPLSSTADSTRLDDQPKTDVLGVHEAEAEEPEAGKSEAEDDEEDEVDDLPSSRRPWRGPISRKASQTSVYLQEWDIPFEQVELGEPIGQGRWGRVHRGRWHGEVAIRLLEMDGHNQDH
# B1: endogenous KSR1 (human cell lines) (protein, UniProt Q8IVT5 1-923)
# chain: MDRAALRAAAMGEKKEGGGGGDAAAAEGGAGAAASRALQQCGQLQKLIDISIGSLRGLRTKCAVSNDLTQQEIRTLEAKLVRYICKQRQCKLSVAPGERTPELNSYPRFSDWLYTFNVRPEVVQEIPRDLTLDALLEMNEAKVKETLRRCGASGDECGRLQYALTCLRKVTGLGGEHKEDSSWSSLDARRESGSGPSTDTLSAASLPWPPGSSQLGRAGNSAQGPRSISVSALPASDSPTPSFSEGLSDTCIPLHASGRLTPRALHSFITPPTTPQLRRHTKLKPPRTPPPPSRKVFQLLPSFPTLTRSKSHESQLGNRIDDVSSMRFDLSHGSPQMVRRDIGLSVTHRFSTKSWLSQVCHVCQKSMIFGVKCKHCRLKCHNKCTKEAPACRISFLPLTRLRRTESVPSDINNPVDRAAEPHFGTLPKALTKKEHPPAMNHLDSSSNPSSTTSSTPSSPAPFPTSSNPSSATTPPNPSPGQRDSRFNFPAAYFIHHRQQFIFPVPSAGHCWKCLLIAESLKENAFNISAFAHAAPLPEAADGTRLDDQPKADVLEAHEAEAEEPEAGKSEAEDDEDEVDDLPSSRRPWRGPISRKASQTSVYLQEWDIPFEQVELGEPIGQGRWGRVHRGRWHGEVAIRLLEMDGHNQDHLKLFKKEVMNYRQTRHENVVLFMGACMNPPHLAIITSFCKGRTLHSFVRDPKTSLDINKTRQIAQEIIKGMGYLHAKGIVHKDLKSKNVFYDNGKVVITDFGLFGISGVVREGRRENQLKLSHDWLCYLAPEIVREMTPGKDEDQLPFSKAADVYAFGTVWYELQARDWPLKNQAAEASIWQIGSGEGMKRVLTSVSLGKEVSEILSACWAFDLQERPSFSLLMDMLEKLPKLNRRLSHPGHFWKSADINSSKVVPRFERFGLGVLESSNPKM
# B2: His-KSR1, bacterially expressed, purified, full-length KSR1 (protein, UniProt Q61097 1-873)
# chain: T1 sequence
# Key:
# [1] = molecular target: T1, Flag-tagged wild-type KSR1 (kinase suppressor of Ras 1); assay: co-IP; HEK293T transfected with Flag-tagged KSR1 constructs (1.5 μg); starved 18 h, EGF 50 ng/ml 5 min or co-transfected HRAS^V12 (APS-2-79 in Fig. 8B); anti-Flag immunoprecipitation, Western blot of associated cellular proteins; no IQGAP1 overexpressed
# [2] = molecular target: T1, Flag-tagged wild-type KSR1 (kinase suppressor of Ras 1); assay: co-IP; HEK293T transfected with Myc-tagged IQGAP1 constructs and Flag-tagged KSR1 constructs (1.5 μg); starved 18 h, EGF 50 ng/ml 5 min; anti-Flag immunoprecipitation, anti-Myc immunoblotting
# [3] = molecular target: T2, Flag-tagged KSR1 construct 1 to 521; assay: as above
# [4] = molecular target: T1, Flag-tagged wild-type KSR1 (kinase suppressor of Ras 1); assay: proximity ligation; transfected HeLa cells, fixed and permeabilised; starved or EGF-treated
# [5] = molecular target: T3, Flag-tagged KSR1 C809Y; assay: co-IP; HEK293T transfected with Flag-tagged KSR1 constructs (1.5 μg); starved 18 h, EGF 50 ng/ml 5 min or co-transfected HRAS^V12 (APS-2-79 in Fig. 8B); anti-Flag immunoprecipitation, Western blot of associated cellular proteins; no IQGAP1 overexpressed
# [6] = molecular target: T4, GST-KSR1 301-600; assay: pull-down; beads coated with purified GST-KSR1 301-600 incubated with total lysates of HEK293T cells (starved or EGF-stimulated) lysed in MLB buffer; immunoblotting; only the target purified
# [7] = molecular target: endogenous IQGAP1 (human cell lines) (human (endogenous in HEK293T, Cal62, Hth83)) (UniProt P46940); assay: co-IP; endogenous proteins in proliferating Cal62 and Hth83 tumor cell lines; anti-IQGAP1 immunoprecipitation
# [8] = molecular target: endogenous IQGAP1 (human cell lines) (human (endogenous in HEK293T, Cal62, Hth83)) (UniProt P46940); assay: co-IP; endogenous IQGAP1 or KSR1 immunoprecipitated from HEK293T, starved 18 h or EGF-stimulated (APS-2-79 in Fig. 8C); the other scaffold detected by Western blot; preimmune serum as control
# [9] = molecular target: GST-IQGAP1 (UniProt P46940); assay: pull-down; beads coated with GST-IQGAP1 incubated with purified His-KSR1 for 2 hours with rocking at 4°C; washes with PBS, PBS 1% NP-40 and MLB buffer; both purified
molecule,measurement,setting,value
BRAF (V-RAF murine sarcoma viral oncogene homologue B) (from UniProt P15056 1-766),binding,[1],binds
"Myc-tagged IQGAP1 (IQ motif-containing guanosine triphosphatase activating protein 1), wild type (from UniProt P46940 1-1657)",binding,[2],binds
same,binding,[3],binds
same,binding,[4],binds
endogenous IQGAP1 (human cell lines) (from UniProt P46940 1-1657),binding,[1],binds
same,binding,[5],binds
same,binding,[6],binds
B1,binding,[7],binds
same,binding,[8],binds
B2,binding,[9],binds
